Laboratory results reported in patent US8716248B2, “Lipid tripeptide-based hydrogelator and hydrogel” (Nissan Chemical Industries, Ltd., priority 2007, dated 2014).
Part of at least one peptide drawing is inferred or uncertain, most often the ends. Residues, ends and D or L forms follow the SMILES beside them. *: point of attachment. Palmitoyl = CCCCCCCCCCCCCCCC(=O)*

What was measured:
Format in all cases: physicochemical
Design in all cases: key to Gelled: A state in which after leaving the resultant solution to cool down, the fluidity of the solution was lost and when the sample tube was inverted, the solution did not flow down, was evaluated as “gelled (◯)”
[1] = Evaluation of hydrogelation of lipid peptide by acidic buffer solution; details: for gelation: acidic buffer solution, concentration of 0.1% by mass; for Gelled: heated to 90° C. or more, left to cool, tube inverted; for pH: pH of the solution at room temperature
[2] = Evaluation of hydrogelation of lipid peptide by neutral buffer solution; details: for pH: pH of the solution at room temperature; for Gelled: heated to 90° C. or more, left to cool, tube inverted
[3] = Evaluation of hydrogelation of lipid peptide with pure water; details: for Gelled: heated to 90° C. or more, left to cool, tube inverted; for pH: pH of the solution at room temperature
[4] = phosphate buffer solution (PBS) pH=2.0, lipid peptide 0.1% (w/v)
[5] = phosphate buffer solution (PBS) pH=2.0, lipid peptide 0.5% (w/v)
[6] = PBS pH=2.0, lipid peptide 0.1% (w/v)
[7] = PBS pH=2.0, lipid peptide 0.5% (w/v)

| SMILES | gelation [1] | Gelled [1, 4] | Gelled [1, 5] | pH [1, 6] | pH [1, 7] | pH ([2]; PBS pH=7.5, lipid peptide 0.1% (w/v)) | pH ([2]; PBS pH=7.5, lipid peptide 0.5% (w/v)) | gelation ([2]; neutral buffer solution, concentration of 0.1% by mass) | Gelled ([2]; phosphate buffer solution (PBS) pH=7.5, lipid peptide 0.1% (w/v)) | Gelled ([2]; phosphate buffer solution (PBS) pH=7.5, lipid peptide 0.5% (w/v)) | gelation ([3]; concentration of 0.1% by mass) | Gelled ([3]; lipid peptide 0.1% (w/v)) | pH ([3]; lipid peptide 0.1% (w/v)) | Gelled ([3]; lipid peptide 0.5% (w/v)) | pH ([3]; lipid peptide 0.5% (w/v)) |
| --- | --- | --- | --- | --- | --- | --- | --- | --- | --- | --- | --- | --- | --- | --- | --- |
| CCCCCCCCCCCCCCCC(=O)NCC(=O)NCC(=O)N[C@@H](Cc1c[nH]cn1)C(=O)O [Example 1, N-palmitoyl-Gly-Gly-His] (Palmitoyl-Gly-Gly-His-OH) | gelled | ◯ | ◯ | – | – | – | – | – | – | – | – | – | – | – | – |
| CCCCCCCCCCCCCCCC(=O)NCC(=O)N[C@@H](Cc1c[nH]cn1)C(=O)NCC(=O)O [Example 2, N-palmitoyl-Gly-His-Gly] (Palmitoyl-Gly-His-Gly-OH) | gelled | ◯ | ◯ | 1.9 | 1.8 | – | – | – | – | – | – | – | – | – | – |
| CCCCCCCCCCCCCCCC(=O)N[C@@H](Cc1c[nH]cn1)C(=O)NCC(=O)NCC(=O)O [Example 3, N-palmitoyl-His-Gly-Gly] (Palmitoyl-His-Gly-Gly-OH) | gelled | ◯ | ◯ | 1.9 | 1.8 | 7.3 | 7.4 | gelled | ◯ | ◯ | gelled | ◯ | 7.4 | ◯ | 7.0 |
